Reference: the supplement of paper PMC7646827
Single values are uncertain, as repeats are few or missing.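 All cells are established human bladder cancer lines, one derived from a patient-derived xenograft. A luminescent ATP assay measured viability as percent inhibition relative to vehicle across seven dilutions. The paper rates scores above 59 very active, 30–59 active, 21–29 semi-active, 9–20 low active, below 9 inactive.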

Assays:
Experiment in all cases: drug sensitivity score DSS3 (score 0-100); higher = more sensitive; extreme values may be limits of the assay
Details in all cases: culture: 3D, ultra-low attachment; treatment time: 5 days
UM-UC-17 = system: UM-UC-17
SW780 = system: SW780
UM-UC-18 = system: UM-UC-18
5637 = system: 5637
UM-UC-1 = system: UM-UC-1
UM-UC-12 = system: UM-UC-12
TCCSUP = system: TCCSUP
UM-UC-3 = system: UM-UC-3
UM-UC-6 = system: UM-UC-6
BC8149 = system: BC8149
J82 = system: J82
UM-UC-15 = system: UM-UC-15
SCaBER = system: SCaBER
UM-UC-5 = system: UM-UC-5
T-24 = system: T-24
UM-UC-9 = system: UM-UC-9
UM-UC-14 = system: UM-UC-14

| Compound | drug sensitivity score DSS3 (UM-UC-17) | drug sensitivity score DSS3 (SW780) | drug sensitivity score DSS3 (UM-UC-18) | drug sensitivity score DSS3 5637 | drug sensitivity score DSS3 (UM-UC-1) | drug sensitivity score DSS3 (UM-UC-12) | drug sensitivity score DSS3 (TCCSUP) | drug sensitivity score DSS3 (UM-UC-3) | drug sensitivity score DSS3 (UM-UC-6) | drug sensitivity score DSS3 (BC8149) | drug sensitivity score DSS3 (J82) | drug sensitivity score DSS3 (UM-UC-15) | drug sensitivity score DSS3 (SCaBER) | drug sensitivity score DSS3 (UM-UC-5) | drug sensitivity score DSS3 (T-24) | drug sensitivity score DSS3 (UM-UC-9) | drug sensitivity score DSS3 (UM-UC-14) |
| --- | --- | --- | --- | --- | --- | --- | --- | --- | --- | --- | --- | --- | --- | --- | --- | --- | --- |
| CC[C@@]1(O)C(=O)OCc2c1cc1n(c2=O)Cc2cc3ccccc3nc2-1 [Camptothecin] (max dose 5000 nM) | 50.1 | 35.1 | 76.8 | 80.3 | 76.9 | 73.5 | 76.5 | 62.6 | 46.9 | 79.8 | 62.3 | 18 | 36 | 22.3 | 23.7 | 30.4 | 64 |
| CNC(=O)c1ccc2cc([C@@]3(O)CCn4cncc43)ccc2c1 [TAK-700 (Orteronel)] (max dose 10000 nM) | 0 | 0 | 0 | 0 | 0 | 0 | 0 | 0 | 0 | 0 | 0 | 0 | 0 | 0 | 0 | 0 | 0 |
| CCCN(CCC)C(=O)C1=Cc2ccc(-c3ccc(C(=O)N4CCCC4)cc3)cc2N=C(N)C1 [Motolimod (VTX-2337)] (max dose 10000 nM) | 0 | 0 | 0 | 0 | 0 | 0 | 0 | 0 | 0.734 | 0 | 0 | 0 | 0 | 0 | 0 | 0 | 0 |
| N#Cc1ccc2[nH]c(O)c(-c3ccc(CN4CCOCC4)cn3)c2c1 [AZD1080] (max dose 10000 nM) | 0 | 0 | 0 | 1.43 | 0 | 0 | 0 | 0 | 0 | 0 | 0 | 0 | 0 | 0 | 0 | 0 | 0 |
| CC(C)(C)C[C@@H]1N[C@@H](C(=O)N[C@H]2CC[C@H](O)CC2)[C@H](c2cccc(Cl)c2F)[C@]12C(=O)Nc1cc(Cl)ccc12 (max dose 10000 nM) | 0 | 2.58 | 0.582 | 3.78 | 0.762 | 12.2 | 4.53 | 0.542 | 0.72 | 14.4 | 0 | 0 | 2.42 | 0 | 0.404 | 0 | 0.372 |
| N#CCNC(=O)c1ccc(-c2ccnc(Nc3ccc(N4CCOCC4)cc3)n2)cc1 [CYT387] (max dose 10000 nM) | 0 | 0 | 0 | 0.0444 | 0 | 0 | 1.24 | 1.16 | 0 | 0 | 0 | 0 | 0 | 0.161 | 0 | 0 | 0.449 |
